From paper PMC9190513
Where two headings read alike, the source gives them in different places. No constants are given. Whether binding was seen depends on the method and setting. In cells and extracts the contact can be indirect. Some results given as binding are weak or reduced against the parent protein; the word gives no strength. For some assays here: Tags and fused reporters may be left off the sequences shown. One block for each molecule: values may come before it.

Amino acid sequences for entries named in this document (tags omitted). A change or cut given only in a name is not applied to a line headed by its entry.
UniProt P25054: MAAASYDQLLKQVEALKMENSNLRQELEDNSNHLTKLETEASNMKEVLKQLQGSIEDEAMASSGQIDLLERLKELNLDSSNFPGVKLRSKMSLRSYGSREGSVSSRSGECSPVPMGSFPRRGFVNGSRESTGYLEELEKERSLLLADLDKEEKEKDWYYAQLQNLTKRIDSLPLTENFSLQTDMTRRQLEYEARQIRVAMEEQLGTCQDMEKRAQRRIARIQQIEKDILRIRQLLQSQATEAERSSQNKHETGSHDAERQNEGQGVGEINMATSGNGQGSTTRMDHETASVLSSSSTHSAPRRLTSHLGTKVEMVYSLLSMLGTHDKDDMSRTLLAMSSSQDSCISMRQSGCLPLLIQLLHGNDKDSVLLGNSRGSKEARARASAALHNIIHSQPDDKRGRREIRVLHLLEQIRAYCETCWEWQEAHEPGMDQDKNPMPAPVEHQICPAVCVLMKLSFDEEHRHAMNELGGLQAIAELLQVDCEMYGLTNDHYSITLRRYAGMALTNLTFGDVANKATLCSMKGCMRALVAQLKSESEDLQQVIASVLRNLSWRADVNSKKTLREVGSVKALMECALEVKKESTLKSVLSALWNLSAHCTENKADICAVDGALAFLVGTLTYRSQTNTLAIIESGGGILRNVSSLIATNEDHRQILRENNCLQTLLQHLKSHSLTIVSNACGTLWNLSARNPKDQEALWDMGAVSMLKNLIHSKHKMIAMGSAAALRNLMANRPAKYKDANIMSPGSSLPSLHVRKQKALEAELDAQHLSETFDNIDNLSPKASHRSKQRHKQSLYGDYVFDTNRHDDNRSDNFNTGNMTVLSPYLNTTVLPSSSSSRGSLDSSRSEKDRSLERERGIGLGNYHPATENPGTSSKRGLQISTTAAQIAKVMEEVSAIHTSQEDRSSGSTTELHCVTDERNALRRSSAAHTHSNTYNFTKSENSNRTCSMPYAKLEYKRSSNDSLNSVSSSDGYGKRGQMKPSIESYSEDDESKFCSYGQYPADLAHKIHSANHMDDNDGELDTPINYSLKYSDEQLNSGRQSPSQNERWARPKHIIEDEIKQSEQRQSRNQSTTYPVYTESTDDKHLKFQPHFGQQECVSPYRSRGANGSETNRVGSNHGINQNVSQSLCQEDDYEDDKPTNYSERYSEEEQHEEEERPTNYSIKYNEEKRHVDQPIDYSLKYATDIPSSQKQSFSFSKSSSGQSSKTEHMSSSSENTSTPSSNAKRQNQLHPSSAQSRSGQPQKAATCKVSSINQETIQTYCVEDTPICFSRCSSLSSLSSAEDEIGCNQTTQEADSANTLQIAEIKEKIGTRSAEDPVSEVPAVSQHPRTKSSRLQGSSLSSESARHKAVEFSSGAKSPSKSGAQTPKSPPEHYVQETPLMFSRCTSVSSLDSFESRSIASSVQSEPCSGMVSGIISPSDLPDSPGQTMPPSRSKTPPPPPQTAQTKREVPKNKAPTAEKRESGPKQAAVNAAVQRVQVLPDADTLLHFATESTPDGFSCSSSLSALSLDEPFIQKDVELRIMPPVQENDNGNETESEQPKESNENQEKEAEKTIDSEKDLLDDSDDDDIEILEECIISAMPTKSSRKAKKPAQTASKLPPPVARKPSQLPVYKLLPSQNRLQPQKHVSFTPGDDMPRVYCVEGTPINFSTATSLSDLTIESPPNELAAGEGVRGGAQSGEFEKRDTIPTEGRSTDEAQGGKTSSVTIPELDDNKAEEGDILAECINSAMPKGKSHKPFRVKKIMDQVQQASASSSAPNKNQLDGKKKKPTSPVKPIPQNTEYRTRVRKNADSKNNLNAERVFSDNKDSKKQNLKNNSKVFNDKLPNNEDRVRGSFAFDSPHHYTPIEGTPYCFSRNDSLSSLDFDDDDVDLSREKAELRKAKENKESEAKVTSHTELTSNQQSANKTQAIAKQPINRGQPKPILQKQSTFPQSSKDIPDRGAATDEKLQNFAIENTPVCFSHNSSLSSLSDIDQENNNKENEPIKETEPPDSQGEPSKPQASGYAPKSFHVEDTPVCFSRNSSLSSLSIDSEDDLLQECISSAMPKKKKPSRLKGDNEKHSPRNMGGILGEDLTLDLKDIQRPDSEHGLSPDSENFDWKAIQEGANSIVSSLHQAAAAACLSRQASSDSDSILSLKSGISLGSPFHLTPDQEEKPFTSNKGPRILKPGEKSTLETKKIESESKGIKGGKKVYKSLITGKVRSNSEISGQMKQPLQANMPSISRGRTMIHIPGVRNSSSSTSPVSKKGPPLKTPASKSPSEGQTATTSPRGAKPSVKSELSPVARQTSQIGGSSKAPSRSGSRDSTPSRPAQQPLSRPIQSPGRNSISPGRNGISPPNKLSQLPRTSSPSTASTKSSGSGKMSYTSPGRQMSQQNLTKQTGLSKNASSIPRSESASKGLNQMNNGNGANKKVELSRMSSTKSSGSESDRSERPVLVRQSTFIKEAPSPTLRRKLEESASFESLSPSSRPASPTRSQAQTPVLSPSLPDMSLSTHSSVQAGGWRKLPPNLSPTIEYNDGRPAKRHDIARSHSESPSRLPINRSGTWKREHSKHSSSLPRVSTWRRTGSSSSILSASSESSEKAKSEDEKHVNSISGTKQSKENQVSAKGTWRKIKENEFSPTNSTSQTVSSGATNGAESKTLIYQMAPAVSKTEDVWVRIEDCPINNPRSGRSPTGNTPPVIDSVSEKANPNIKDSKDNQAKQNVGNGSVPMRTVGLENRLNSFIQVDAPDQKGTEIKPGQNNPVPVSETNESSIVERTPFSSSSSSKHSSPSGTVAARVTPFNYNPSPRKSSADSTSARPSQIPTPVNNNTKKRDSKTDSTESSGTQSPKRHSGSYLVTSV
UniProt O15169: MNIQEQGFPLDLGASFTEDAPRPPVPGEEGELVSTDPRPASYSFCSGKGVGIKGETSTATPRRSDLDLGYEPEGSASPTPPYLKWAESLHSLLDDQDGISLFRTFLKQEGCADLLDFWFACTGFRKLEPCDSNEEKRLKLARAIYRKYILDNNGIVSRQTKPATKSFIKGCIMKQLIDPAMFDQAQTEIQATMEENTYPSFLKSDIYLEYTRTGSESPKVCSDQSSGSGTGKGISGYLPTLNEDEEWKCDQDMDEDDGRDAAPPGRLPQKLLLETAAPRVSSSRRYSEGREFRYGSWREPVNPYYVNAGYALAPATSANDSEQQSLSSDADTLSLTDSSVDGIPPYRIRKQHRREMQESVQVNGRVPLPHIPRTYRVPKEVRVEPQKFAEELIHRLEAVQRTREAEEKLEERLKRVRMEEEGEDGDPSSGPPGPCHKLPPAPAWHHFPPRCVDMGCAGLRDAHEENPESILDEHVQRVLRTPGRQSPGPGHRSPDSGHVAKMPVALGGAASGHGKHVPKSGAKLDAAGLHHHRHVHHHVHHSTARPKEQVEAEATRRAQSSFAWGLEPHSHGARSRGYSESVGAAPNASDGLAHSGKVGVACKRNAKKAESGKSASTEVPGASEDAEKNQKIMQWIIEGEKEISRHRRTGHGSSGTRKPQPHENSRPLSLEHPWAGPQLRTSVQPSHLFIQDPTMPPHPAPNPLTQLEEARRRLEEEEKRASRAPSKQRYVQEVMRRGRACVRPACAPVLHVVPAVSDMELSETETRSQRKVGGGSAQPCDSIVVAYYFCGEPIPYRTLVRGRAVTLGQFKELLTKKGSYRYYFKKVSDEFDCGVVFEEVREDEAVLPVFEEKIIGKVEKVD
UniProt P35222: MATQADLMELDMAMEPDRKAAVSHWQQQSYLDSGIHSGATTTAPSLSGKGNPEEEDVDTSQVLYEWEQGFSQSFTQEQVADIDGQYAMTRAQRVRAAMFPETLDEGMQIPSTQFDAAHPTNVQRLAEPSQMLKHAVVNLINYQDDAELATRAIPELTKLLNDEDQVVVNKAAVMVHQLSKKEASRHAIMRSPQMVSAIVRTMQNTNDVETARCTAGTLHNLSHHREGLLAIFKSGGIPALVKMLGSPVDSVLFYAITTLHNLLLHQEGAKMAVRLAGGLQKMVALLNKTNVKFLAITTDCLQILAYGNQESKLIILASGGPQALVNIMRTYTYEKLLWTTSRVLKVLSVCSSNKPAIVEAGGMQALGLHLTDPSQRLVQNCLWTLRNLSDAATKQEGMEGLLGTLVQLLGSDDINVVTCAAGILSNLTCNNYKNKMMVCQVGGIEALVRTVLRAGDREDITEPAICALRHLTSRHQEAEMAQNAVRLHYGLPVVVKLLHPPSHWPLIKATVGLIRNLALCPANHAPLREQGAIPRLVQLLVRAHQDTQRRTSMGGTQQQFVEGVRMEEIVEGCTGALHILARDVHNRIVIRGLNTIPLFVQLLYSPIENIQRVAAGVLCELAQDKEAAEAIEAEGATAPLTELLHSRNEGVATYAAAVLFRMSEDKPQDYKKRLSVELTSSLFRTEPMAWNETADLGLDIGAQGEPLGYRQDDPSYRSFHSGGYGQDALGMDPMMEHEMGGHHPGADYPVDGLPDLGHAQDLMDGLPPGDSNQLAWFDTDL

Assays:
[1] = target: adenomatous polyposis coli (APC) (human (endogenous in HEK293T)) (UniProt P25054); assay: co-IP; endogenous APC precipitated with anti-APC from lysates of HEK293T cells transfected with HA-Axin1-WT or K147R and treated with Wnt3a-conditioned medium for 30 minutes; Axin1 detected with anti-HA (Figure 5B)
[2] = target: HA-Axin1-WT (not stated (human or mouse cDNA cloned)) (UniProt O15169); assay: co-IP; HA-Axin1 (WT or K147R) precipitated with anti-HA from lysates of transfected HEK293T cells, western blot; co-IP buffer 50 mM Tris pH 8.0, 0.5% NP-40, 1 mM EDTA, 150 mM NaCl or RIPA, 4°C; cells with or without Wnt3a-conditioned medium, SIRT4 overexpression or MG132 (Figures 2J, 5A, 5D, 5G)
[3] = target: HA-Axin1-K147R (not stated (human or mouse cDNA cloned)) (UniProt O15169); assay: as above
[4] = target: HA-Axin1-WT (not stated (human or mouse cDNA cloned)) (UniProt O15169); assay: as above; remark: listed apart in the source

Molecule: phosphorylated β-catenin (from UniProt P35222 1-781)
binding [2]: binds | binding [3]: binds

B1: SIRT4-Myc (enzyme, UniProt Q9Y6E7 29-314)
chain: IGLFVPASPPLDPEKVKELQRFITLSKRLLVMTGAGISTESGIPDYRSEKVGLYARTDRRPIQHGDFVRSAPIRQRYWARNFVGWPQFSSHQPNPAHWALSTWEKLGKLYWLVTQNVDALHTKAGSRRLTELHGCMDRVLCLDCGEQTPRGVLQERFQVLNPTWSAEAHGLAPDGDVFLSEEQVRSFQVPTCVQCGGHLKPDVVFFGDTVNPDKVDFVHKRVKEADSLLVVGSSLQVYSGYRFILTAWEKKLPIAILNIGPTRSDDLACLKLNSRCGELLPLIDPC
binding [4]: binds

More lines, now with the values ahead:

binding [1]: binds
Molecule: HA-Axin1-K147R (from UniProt O15169 1-862)

binding [1]: binds
Molecule: HA-Axin1-WT (from UniProt O15169 1-862)
